Assay results as given in article PMC4045235.

Amino acid sequences for entries named in this document (tags omitted).
UniProt O75147: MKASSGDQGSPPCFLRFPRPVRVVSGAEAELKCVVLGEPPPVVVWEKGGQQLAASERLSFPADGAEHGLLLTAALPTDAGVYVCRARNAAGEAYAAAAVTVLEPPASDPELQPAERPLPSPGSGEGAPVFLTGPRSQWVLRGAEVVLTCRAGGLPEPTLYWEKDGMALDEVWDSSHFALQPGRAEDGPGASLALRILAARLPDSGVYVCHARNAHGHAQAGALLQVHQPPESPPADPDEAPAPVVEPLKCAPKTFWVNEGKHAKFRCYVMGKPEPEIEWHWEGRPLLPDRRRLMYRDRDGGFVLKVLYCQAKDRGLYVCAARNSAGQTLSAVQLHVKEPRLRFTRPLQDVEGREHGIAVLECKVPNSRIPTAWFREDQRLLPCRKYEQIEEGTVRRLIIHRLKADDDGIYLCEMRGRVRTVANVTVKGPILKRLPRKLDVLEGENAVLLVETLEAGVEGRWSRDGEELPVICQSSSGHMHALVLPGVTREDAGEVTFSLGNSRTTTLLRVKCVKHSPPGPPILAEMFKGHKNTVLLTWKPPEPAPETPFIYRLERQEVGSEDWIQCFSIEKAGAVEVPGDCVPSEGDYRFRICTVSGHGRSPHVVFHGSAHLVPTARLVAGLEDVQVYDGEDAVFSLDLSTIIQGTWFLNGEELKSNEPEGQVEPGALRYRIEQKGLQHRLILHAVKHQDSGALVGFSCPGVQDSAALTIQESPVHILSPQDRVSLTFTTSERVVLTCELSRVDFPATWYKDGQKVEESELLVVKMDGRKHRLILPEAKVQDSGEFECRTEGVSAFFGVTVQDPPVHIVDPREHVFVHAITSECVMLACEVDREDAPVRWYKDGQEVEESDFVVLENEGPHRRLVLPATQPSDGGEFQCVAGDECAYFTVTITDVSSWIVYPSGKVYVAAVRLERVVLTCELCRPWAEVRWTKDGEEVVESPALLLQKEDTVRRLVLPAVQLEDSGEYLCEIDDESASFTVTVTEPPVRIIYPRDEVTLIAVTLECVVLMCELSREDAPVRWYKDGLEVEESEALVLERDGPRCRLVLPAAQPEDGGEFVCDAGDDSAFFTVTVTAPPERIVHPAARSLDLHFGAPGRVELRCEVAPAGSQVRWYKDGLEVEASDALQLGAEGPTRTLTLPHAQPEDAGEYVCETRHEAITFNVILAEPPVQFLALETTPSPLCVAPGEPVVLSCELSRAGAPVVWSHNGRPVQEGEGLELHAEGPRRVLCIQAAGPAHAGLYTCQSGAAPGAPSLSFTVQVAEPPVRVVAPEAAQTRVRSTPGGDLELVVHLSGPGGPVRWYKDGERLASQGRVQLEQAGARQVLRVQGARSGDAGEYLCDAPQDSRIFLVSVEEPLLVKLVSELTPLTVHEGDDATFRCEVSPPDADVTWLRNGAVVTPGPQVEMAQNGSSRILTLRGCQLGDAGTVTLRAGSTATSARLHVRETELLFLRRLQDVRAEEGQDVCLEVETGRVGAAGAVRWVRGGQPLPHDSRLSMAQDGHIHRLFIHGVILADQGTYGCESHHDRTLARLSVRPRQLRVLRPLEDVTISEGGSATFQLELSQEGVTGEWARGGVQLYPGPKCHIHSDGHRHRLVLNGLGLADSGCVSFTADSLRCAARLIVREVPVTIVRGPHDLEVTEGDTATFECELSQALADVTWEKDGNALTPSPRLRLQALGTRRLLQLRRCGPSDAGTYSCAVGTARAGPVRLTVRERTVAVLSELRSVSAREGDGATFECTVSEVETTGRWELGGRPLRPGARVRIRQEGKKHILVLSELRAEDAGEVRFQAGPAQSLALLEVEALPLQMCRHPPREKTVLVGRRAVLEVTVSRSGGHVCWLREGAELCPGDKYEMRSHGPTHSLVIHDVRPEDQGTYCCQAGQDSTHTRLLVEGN
UniProt Q14999: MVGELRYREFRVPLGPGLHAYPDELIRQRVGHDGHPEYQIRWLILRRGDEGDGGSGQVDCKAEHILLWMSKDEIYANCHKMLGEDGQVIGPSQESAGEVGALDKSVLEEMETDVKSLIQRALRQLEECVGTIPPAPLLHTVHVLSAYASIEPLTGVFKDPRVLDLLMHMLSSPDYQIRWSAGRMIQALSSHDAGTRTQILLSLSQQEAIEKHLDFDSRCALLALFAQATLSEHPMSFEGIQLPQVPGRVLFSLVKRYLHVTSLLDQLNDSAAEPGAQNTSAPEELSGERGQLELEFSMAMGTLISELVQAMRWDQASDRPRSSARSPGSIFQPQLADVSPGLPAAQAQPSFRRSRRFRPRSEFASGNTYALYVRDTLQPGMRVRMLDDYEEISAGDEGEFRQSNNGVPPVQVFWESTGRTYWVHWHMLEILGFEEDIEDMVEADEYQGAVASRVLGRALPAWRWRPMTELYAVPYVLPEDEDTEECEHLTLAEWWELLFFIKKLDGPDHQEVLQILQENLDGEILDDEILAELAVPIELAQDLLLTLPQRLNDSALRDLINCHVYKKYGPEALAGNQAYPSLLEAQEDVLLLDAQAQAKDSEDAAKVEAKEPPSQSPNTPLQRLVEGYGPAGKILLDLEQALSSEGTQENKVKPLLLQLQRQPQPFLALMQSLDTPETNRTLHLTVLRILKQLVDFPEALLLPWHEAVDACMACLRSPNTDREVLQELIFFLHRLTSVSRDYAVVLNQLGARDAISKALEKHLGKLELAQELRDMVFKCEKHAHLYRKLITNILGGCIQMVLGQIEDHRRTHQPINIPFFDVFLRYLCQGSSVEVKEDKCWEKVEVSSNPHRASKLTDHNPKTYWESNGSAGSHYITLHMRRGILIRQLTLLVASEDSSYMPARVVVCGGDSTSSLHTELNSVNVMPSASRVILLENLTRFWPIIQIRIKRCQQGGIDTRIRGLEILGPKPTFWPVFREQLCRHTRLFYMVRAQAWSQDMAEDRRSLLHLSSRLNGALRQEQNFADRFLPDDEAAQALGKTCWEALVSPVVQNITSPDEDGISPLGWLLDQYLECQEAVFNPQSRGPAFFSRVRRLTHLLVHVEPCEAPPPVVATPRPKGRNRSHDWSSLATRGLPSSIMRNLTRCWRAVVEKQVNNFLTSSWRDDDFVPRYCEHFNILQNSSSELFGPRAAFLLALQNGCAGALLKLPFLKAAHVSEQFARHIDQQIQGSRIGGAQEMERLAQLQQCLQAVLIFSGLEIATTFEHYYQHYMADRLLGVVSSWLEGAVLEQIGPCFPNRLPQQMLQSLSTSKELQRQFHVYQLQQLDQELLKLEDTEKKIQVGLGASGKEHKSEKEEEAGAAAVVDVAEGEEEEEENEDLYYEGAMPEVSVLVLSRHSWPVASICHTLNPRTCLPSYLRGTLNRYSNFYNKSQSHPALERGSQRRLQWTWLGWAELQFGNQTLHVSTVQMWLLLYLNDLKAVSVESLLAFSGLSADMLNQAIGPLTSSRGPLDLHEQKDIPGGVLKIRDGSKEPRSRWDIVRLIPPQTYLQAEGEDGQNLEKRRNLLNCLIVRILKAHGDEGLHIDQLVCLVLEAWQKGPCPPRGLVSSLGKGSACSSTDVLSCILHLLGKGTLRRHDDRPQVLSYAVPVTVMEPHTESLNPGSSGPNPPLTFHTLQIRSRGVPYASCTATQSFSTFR

What was measured:
Assay in all cases: affinity purification with mass spectrometry; lysates of HEK293 cells transfected with CUL7, V5-OBSL1 or CCDC8, 24 h post-transfection; IP with CUL7, V5 or CCDC8 antibody on protein G Dynabeads; SDS-PAGE, GeLC-MS/MS; proteins found in no antibody control IPs removed; only proteins present in all three IPs kept
CCDC8 = biological target: T1, CCDC8 (UniProt Q9H0W5)
T1 sequence: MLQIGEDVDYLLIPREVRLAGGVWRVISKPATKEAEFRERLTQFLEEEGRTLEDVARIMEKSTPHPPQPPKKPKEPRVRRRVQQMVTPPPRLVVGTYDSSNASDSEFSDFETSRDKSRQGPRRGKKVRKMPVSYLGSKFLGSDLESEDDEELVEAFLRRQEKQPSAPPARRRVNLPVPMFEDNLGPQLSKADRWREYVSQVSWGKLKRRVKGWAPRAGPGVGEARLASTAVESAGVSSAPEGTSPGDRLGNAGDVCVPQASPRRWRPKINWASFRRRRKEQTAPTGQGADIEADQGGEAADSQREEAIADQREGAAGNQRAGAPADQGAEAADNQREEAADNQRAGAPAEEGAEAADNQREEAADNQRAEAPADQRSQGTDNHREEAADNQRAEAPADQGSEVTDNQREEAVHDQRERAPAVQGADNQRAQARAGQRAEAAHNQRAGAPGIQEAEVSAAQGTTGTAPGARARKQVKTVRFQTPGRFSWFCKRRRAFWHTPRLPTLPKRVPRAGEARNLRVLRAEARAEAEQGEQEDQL

V5-OBSL1 = V5-OBSL1 (UniProt O75147)
CUL7 = CUL7 (UniProt Q14999)

binding (CCDC8): binds
binding (V5-OBSL1): binds
binding (CUL7): binds
B1: SF1 (protein, UniProt Q15637 1-639)
chain: MATGANATPLDFPSKKRKRSRWNQDTMEQKTVIPGMPTVIPPGLTREQERAYIVQLQIEDLTRKLRTGDLGIPPNPEDRSPSPEPIYNSEGKRLNTREFRTRKKLEEERHNLITEMVALNPDFKPPADYKPPATRVSDKVMIPQDEYPEINFVGLLIGPRGNTLKNIEKECNAKIMIRGKGSVKEGKVGRKDGQMLPGEDEPLHALVTANTMENVKKAVEQIRNILKQGIETPEDQNDLRKMQLRELARLNGTLREDDNRILRPWQSSETRSITNTTVCTKCGGAGHIASDCKFQRPGDPQSAQDKARMDKEYLSLMAELGEAPVPASVGSTSGPATTPLASAPRPAAPANNPPPPSLMSTTQSRPPWMNSGPSESRPYHGMHGGGPGGPGGGPHSFPHPLPSLTGGHGGHPMQHNPNGPPPPWMQPPPPPMNQGPHPPGHHGPPPMDQYLGSTPVGSGVYRLHQGKGMMPPPPMGMMPPPPPPPSGQPPPPPSGPLPPWQQQQQQPPPPPPPSSSMASSTPLPWQQNTTTTTTSAGTGSIPPWQQQQAAAAASPGAPQMQGNPTMVPLPPGVQPPLPPGAPPPPPPPPPGSAGMMYAPPPPPPPPMDPSNFVTMMGMGVAGMPPFGMPPAPPPPPPQN

These are yes or no findings as the source states them, for the method shown. In cells and extracts the contact can be indirect. These calls come from enrichment with a bait or labelling near it, and not all partners need be listed.
